Reference: patent US20230220206A1, “REJUVENATING AGENTS FOR ASPHALT RECYCLING” (BASF SE, priority 2020, published 2023)

Test: Ability to rejuvenate bitumen 20/30 (judged from softening point, viscosity, MSCR)
Assay type: physicochemical
Conditions: 5% compound, elastic recovery

Compound	ability to rejuvenate bitumen 20/30 (in words)
CC(COCC1CO1)(COCC1CO1)c1ccccc1 (stereo not drawn) [2-Methyl-2-phenyl-1,3-propandiol bis glycidylether]	very well rejuvenating
CCCCCCCCCCCCc1ccc(S(=O)(=O)O)cc1 [Dodecylbenzene sulfonic acid]	hardened the bitumen
CC(C)CCCCCCOC(=O)C1CCCCC1C(=O)OCCCCCCC(C)C (stereo not drawn) [Hexamoll ® DINCH, diisononyl cyclohexane-1,2-dicarboxylate]	could soften bitumen 20/30 quite well
CCCCCCCCCCCCN1CCCC1=O [N-Dodecyl pyrrolidone]	worked very well
CC(C)(COCC1CO1)COCC1CO1 (stereo not drawn) [Neopentylglycol bis glycidylether]	very well rejuvenating
CC(C)CCCCCCOC(=O)c1ccccc1C(=O)OCCCCCCC(C)C [Palatinol ® DINP, diisononyl phthalate]	could soften bitumen 20/30 quite well
Dodecenyl succinic acid anhydride	very well rejuvenating
Polyethylenglycol bis glycidylether	just slightly rejuvenated
Polypropylenglycol bis glycidylether	very well rejuvenating
